One assay deals with Saos-2. In words: cell viability (CCK-8) relative to DMSO control (% of control); higher = less cytotoxic. To be noted: 10 µM; 48 h.
The next assay has as its system U2OS. The assay is described as above. To be noted: 10 µM; 48 h.

Structures can show the parent of a compound that is named as a salt. The list shows a part of the results. Many values rest on one well or one pass, so single values are uncertain.

The values that follow come from the supplement of paper PMC9433722.

Take `CO/N=C(\C(=O)N[C@@H]1C(=O)N2C(C(=O)OC(C)OC(C)=O)=C(COC(N)=O)CS[C@H]12)c1ccco1` (stereo partly drawn) [Cefuroxime Axetil]: the cell viability with Saos-2 amounted to 97.8; with U2OS, 74.6.
Regarding `CN1CCC(=C2c3ccccc3CC(=O)c3sccc32)CC1` [Ketotifen Fumarate], the cell viability in the assay on Saos-2 is 65.6; with U2OS, 106.
With `COc1cc([C@@H]2c3cc4c(cc3[C@@H](O[C@@H]3O[C@@H]5CO[C@@H](c6cccs6)O[C@H]5[C@H](O)[C@H]3O)[C@H]3COC(=O)[C@H]23)OCO4)cc(OC)c1O` [Teniposide], the cell viability was determined as 36.4 in the assay with Saos-2 and 22.3 with U2OS.
On the same counts, the results for `CCCC(=O)O[C@]1(C(=O)COC(C)=O)CC[C@H]2[C@@H]3C[C@H](F)C4=CC(=O)C=C[C@]4(C)[C@@]3(F)[C@@H](O)C[C@@]21C` [Difluprednate] are 116 and 106.
Take `C[C@@H]1C[C@H]2[C@@H]3CCC4=CC(=O)C=C[C@]4(C)[C@@]3(Cl)[C@@H](O)C[C@]2(C)[C@@]1(OC(=O)c1ccco1)C(=O)CCl` [Mometasone Furoate]: the cell viability came to 115 in the assay on Saos-2 and 129 in the assay on U2OS.
For `Clc1ccccc1CN1CCc2sccc2C1` [Ticlopidine·HCl], the cell viability in the assay on Saos-2 is 67.1; with U2OS it was 97.2.
On the same counts, the results for `CN[C@@H]1[C@H](O)[C@H](NC)[C@H]2O[C@@]3(O)C(=O)C[C@@H](C)O[C@H]3O[C@@H]2[C@H]1O` [Spectinomycin . dihydrochloride] are 61 and 81.1.
Take `CCOc1cc(CC(=O)N[C@@H](CC(C)C)c2ccccc2N2CCCCC2)ccc1C(=O)O` [Repaglinide]: the cell viability worked out at 108 in the assay with Saos-2 and 91.1 in the assay with U2OS.
For the compound `COc1c(N2C[C@@H]3CCCN[C@@H]3C2)c(F)cc2c(=O)c(C(=O)O)cn(C3CC3)c12` [Moxifloxacin·HCl], the results for the cell viability in the assay on Saos-2 and with U2OS were 52.4 and 107, respectively.
